# Results published in publication PMC10163288.
# This is one part of the list.
# B1: il2ra_site1_3nfp_sap_31_mot_HHH_b1_01273_af2_000000279_0001_1_19_H_._HHH_b1_00743_0001_0000500051_0000001_1_0001 (protein)
# chain: SSSSTEELHHLAELVREAYKAAAEGNEEEVEELLEEARRLAEEINDKVARRLLEEIKRNLSSSSS
# B2: il2ra_site1_1z92_sap_29_mot_HHH_b1_03199_000000116_0001_40_57_H_._HHH_b1_01207_0001_0000500021_0000001_0_0001 (protein)
# chain: PDEYLREQLRKALERDPRAAKNILEKFLRSAGVPPEEIEEILRRVEELAKRDPEKAAELAIELLH
# B3: il2ra_site1_1z92_normal_mot_HHH_b1_03815_000000162_0001_1_20_H_._HHH_b1_01429_0001_0000100018_0000001_0 (protein)
# chain: SSSSSAEEYIEEMARALYRTIEAKGNPRARERLELLLRQARLLGDEELRELIEQLLEELRSSSSS
# B4: il2ra_site1_3nfp_normal_mot_HHH_b1_01335_af2_000000105_0001_39_53_H_._HHH_b1_04597_0001_0000700040_0000001_0_af2pred_0001_1_af2pred_swapped (protein)
# chain: SSSSSDEEEVKRLLEEAEEALENGDPEEAHRLLEEALRIAKENDDPELLELVFEAMRRLASSSSS
# B5: il2ra_site1_1z92_sap_3_mot_47733d3662eb36425869ff66b6028fdd_0001_af2_000000189_0001_37_50_H_._491eb89182d8d7232e345b1be462dd80_0001_af2_0001_0000100001_0000001_ … (protein)
# chain: SSSSSSAEERAEFVFRNAEMLIKRGNEEAVEWAIRLLEAIARLGNDPEAEELVERLRELLSSSSS
# B6: il2ra_site2_3nfp_normal_mot_HHH_b2_04451_000000238_0001_21_37_H_._HHH_b2_00723_af2_0001_0000500044_0000001_0 (protein)
# chain: SSSSDLEEEVERLIEEVERLLEEGDKHEAAQLLLEATKLVAELNNEELARILLELFELLQKSSSS
# B7: il2ra_site2_3nfp_sap_32_mot_HHH_b1_02173_000000190_0001_1_18_H_._f0ee23d083d0677da3dfcc8a6cd225b6_0001_0001_0000400035_0000001_0_0001 (protein)
# chain: SSSSDEEELEELLEELRRLVEENDEERARRLIARIAHLAFELNDSEVFFKLAELLYLLVRLSSSS
# B8: il2ra_site2_3nfp_normal_mot_HHH_b1_03966_000000254_0001_1_19_H_._HHH_b2_07664_0001_0000100004_0000001_0 (protein)
# chain: SSSSDEEEEEAAKLAFLVYELARQGDTEEARKVAEEAIKRAEELGDEKVVRLLELALDALSSSSS
# B9: il2ra_site1_2b5i_normal_mot_HHH_b2_06044_000000134_0001_1_20_H_._HHH_b2_07763_af2_0001_0000200019_0000001_1_af2pred_dldesign_0_af2pred (protein)
# chain: SSSSSEKEDELYELYNKALELFRAGKREEAKKLLDEALELARELGSEKLAAELERFRALLSSSSS
# B10: il2ra_site2_3nfp_sap_22_mot_HHH_b1_04312_000000268_0001_22_39_H_._HHH_b1_01863_af2_0001_0000200011_0000001_0_0001_af2pred_0001_af2pred (protein)
# chain: SSSSSSEVEEEIEELIERAKRIPDPHEAFAVLARALRLAEELNDPELLREVRELLRELRSSSSSS
# B11: il2ra_site2_2erj_sap_22_mot_HHH_b2_03255_af2_000000127_0001_19_36_H_._HHH_b1_07611_0001_0000100004_0000001_1_0001 (protein)
# chain: SSSSDEREELEEEVEELLRQAEERGDLHLLYRIAVEALHRAVRLNDPEAERFIAKLAQELSSSSS
# B12: il2ra_site1_3nfp_normal_mot_46d73865503fbedcaf0f3a45445d594c_0001_af2_000000151_0001_1_12_H_._HEEHE_1580_af2_0001_0000500009_0000001_0 (protein)
# chain: NLEEAIRLAAEQLAEEVGIPSIEITVENGEVHVTIEGTDNDARVASRLIEEAAKALGVPLEVTLE
# B13: il2ra_site2_2erj_normal_mot_HHH_b1_00376_000000139_0001_38_52_H_._HHH_b2_08330_0001_0000700006_0000001_0 (protein)
# chain: SSSSTVEELVIEFAEETIEAAERGDEELVRELLEEALEIAERHNNLALFRFLERQLELERSSSSS
# B14: il2ra_site2_2erj_sap_14_mot_HHH_b1_04257_af2_000000188_0001_43_57_H_._HHH_b2_02437_0002_0000400020_0000001_0_0001_af2pred_0001_af2pred (protein)
# chain: SSSSDVEERVRELLEEARELLEEGNPHRAFAVLNEAALLAAEAGDDELFEEVLKVAHKISRSSSS
# B15: il2ra_site2_3nfp_normal_mot_HHH_b1_01086_000000225_0001_20_36_H_._HHH_b1_01202_0001_0001000024_0000001_0_af2pred_0001_af2pred (protein)
# chain: SSSSDFHKYTLRAALLEIEVAIEAGDEELVERLIKNLEKLIKELNDEEMEERLEELKRELSSSSS
# B16: il2ra_site2_3nfp_sap_21_mot_HHH_b2_05843_000000230_0001_1_19_H_._3cfacc6722bd33c9c25ec9075f684c77_0001_af2_0001_0000200034_0000001_0_0001_af2pred_0001_af2pred (protein)
# chain: SSSSSDEEELRELQEKLRELLEEGDEEEAERVAKELAELASRLGDEEAYREAVSIANELESSSSS
# B17: il2ra_site1_2b5i_normal_mot_22370d59370c406a0c205a431f537cfa_0001_af2_000000027_0001_1_31_H_._HHH_b2_03791_0002_0000300023_0000001_0_af2pred_dldesign_0_af2pred (protein)
# chain: SSSSSPLEKAASDIVDELADKYGLDSEQYNELARLAAELVLQGVSPEEIREILEKRAEELKSSSS
# B18: il2ra_site1_2b5i_normal_mot_HHH_b2_00525_af2_000000142_0001_43_56_H_._HHH_b2_02436_0001_0000400006_0000001_0_af2pred_dldesign_0_af2pred (protein)
# chain: SSSSSDLRAVFEEVSRLIAEAREEEDPERRQELLDRARELAEAAKSRFLLRMVDFERESLSSSSS
# B19: il2ra_site1_1z92_normal_mot_HHH_b1_03515_000000289_0001_1_19_H_._HHH_b1_01554_af2_0001_0000200013_0000001_0 (protein)
# chain: SSSSSSEHAARAIVKVLVRVARLSEEQEKELQELAEELVKRGYSLLEIIKILDRVAVELSSSSSS
# Target: il2ra, P01589
# Assay: yeast display titration
row,Binder,apparent Kd
1,B1,inactive: no binding seen
2,B2,inactive: no binding seen
3,B3,inactive: no binding seen
4,B4,inactive: no binding seen
5,B5,inactive: no binding seen
6,B6,inactive: no binding seen
7,B7,inactive: no binding seen
8,B8,inactive: no binding seen
9,B9,inactive: no binding seen
10,B10,inactive: no binding seen
11,B11,inactive: no binding seen
12,B12,inactive: no binding seen
13,B13,inactive: no binding seen
14,B14,inactive: no binding seen
15,B15,inactive: no binding seen
16,B16,inactive: no binding seen
17,B17,inactive: no binding seen
18,B18,inactive: no binding seen
19,B19,inactive: no binding seen

# From no. 12 as far as 13, copied from above:
row,Binder,apparent Kd
12,B12,inactive: no binding seen
13,B13,inactive: no binding seen
